Measured values as given in the supplement of paper PMC12889115.
The list shows a part of the results. Values are raw readings; no control value is given beside them.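 Primary screen: polymyxin B was added at a level permeabilizing Salmonella outer membranes while sparing inner membranes. DMSO wells, both with and without polymyxin B, established maximum growth. Plate-to-plate variation meant each plate was ranked on its own, and the lowest-OD600 compounds were selected as hits.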

Tested on: Salmonella enterica serovar Typhimurium SL1344
Assay: bacterial growth OD600 after 18 h with compound and polymyxin B; higher = more bacterial growth (less inhibition)
Details: 50 µM, Mueller-Hinton broth

SMILES | bacterial growth OD600 (polymyxin B 1 µg/mL) | bacterial growth OD600 (polymyxin B 0.75 µg/mL)
CCOC(=O)N1CCN(C(=O)c2cc(COc3ccc(F)cc3Cl)on2)CC1 | 0.877 | 
Cc1ccc(Oc2ncccc2CNC(=O)c2cnn(C(C)C)c2)cn1 | 1.1 | 
COc1ccccc1CC(=O)N1CCC2(CCCN(CC3CC3)C2)C1 (configuration not stated) | 0.746 | 
C=CCNCC1(O)CCCN(Cc2cccc(F)c2F)C1=O (configuration not stated) | 1.01 | 
Cc1ccccc1N1CCN(C2CCCN(C(=O)CCC(C)C)C2)CC1 (configuration not stated) | 1.03 | 
COc1cccc(CC2(CO)CCN(C/C(Cl)=C/c3ccccc3)CC2)c1 |  | 0.833
Clc1ccc(-c2n[nH]c3c2CN(CC2CC2)CC3)cc1 |  | 0.802
O=C(CC(c1ccccc1)c1cccc(Cl)c1)NCCN1CCCCC1=O (configuration not stated) | 1.11 | 
Cc1nc(N(C)C2CCCCC2)ncc1C(C)NCc1cnc(N(C)C)s1 (configuration not stated) |  | 0.681
O=C(c1ccccc1)N1CCCC(N2CCN(c3cccc(C(F)(F)F)c3)CC2)C1 (configuration not stated) | 0.842 | 
Cc1cccc(C(=O)NCc2cccnc2N2CCCC(O)C2)n1 (configuration not stated) |  | 0.823
Cc1cc(C)n(CCC(=O)NCc2cccnc2Oc2ccc(F)cc2F)n1 | 0.978 | 
CO[C@H]1[C@H](NC(=O)Cc2cccs2)c2ccccc2C12CCN(Cc1ccccc1O)CC2 |  | 0.827
CCc1noc(C)c1C(=O)N(C)C1CCCN(CCCc2ccccc2)C1 (configuration not stated) | 1.14 | 
Cc1c[nH]c(CNC(=O)c2cc(Cn3ccc4ccccc43)[nH]n2)n1 | 0.861 | 
CCN1CCN(C(=O)c2ccc(N3CCC(NCc4nonc4C)CC3)cc2)CC1 |  | 0.827

SMILES | bacterial growth OD600 (polymyxin B 1 µg/mL) | bacterial growth OD600 (polymyxin B 0.75 µg/mL)
CC(C)NCC1(O)CCCN(CC2CCCCC2)C1=O (configuration not stated) |  | 0.957
CCN1CCCC1CNC(=O)CCC1CCN(C2CCN(c3ccccc3)CC2)CC1 (configuration not stated) | 0.857 | 
O=C(c1ccc(NCCC2CCCC2)nc1)N1CCCN(c2ncccn2)CC1 |  | 0.562
Cn1nccc1C(=O)N1CCCC(CCc2cccc(F)c2)C1 (configuration not stated) |  | 0.587
Cc1ccc(CC2(CCC(=O)N(C)Cc3csc(-c4cccs4)n3)CCC(=O)N2)cc1 (configuration not stated) |  | 0.889
Cc1nc(CN(C)C(=O)c2coc(COc3ccc(F)cc3Cl)n2)cs1 | 0.797 | 
CN(Cc1nccs1)Cc1cn(Cc2ccccc2)nc1-c1ccc2c(c1)OCO2 | 0.013 | 
O=C(NCc1ccon1)c1csc2nc(-c3ccc(C(F)(F)F)cc3)cn12 | 0.887 | 
COCc1ccc(C(=O)NCc2c(C)ncc3c2CCN(C(=O)Cc2c(F)ccc(F)c2F)C3)o1 |  | 0.791
Cc1cc(F)ccc1NC(=O)CCC1CCCN(C(=O)CCCN2CCCC2=O)C1 (configuration not stated) | 1.09 | 
COc1ccc(NC(=O)CCC2CCCN(Cc3ccc(F)c(OC)c3)C2)c(C)c1 (configuration not stated) | 0.579 | 
Cc1c(C(C)NCc2ccccc2)cnn1-c1ccc(F)cc1F (configuration not stated) |  | 0.798
CCOC(=O)C1(Cc2ccc(F)cc2F)CCCN(C(=O)Cn2nc(C)cc2C)C1 (configuration not stated) | 0.812 | 
c1ccc(CCC2CCCCN2Cc2nc(-c3cccs3)no2)cc1 (configuration not stated) | 0.012 | 
COCCc1ncc(CN2CCCC(C(=O)Nc3cccc(-n4cccn4)c3)C2)cn1 (configuration not stated) | 0.98 | 
CCC1CN(CC(=O)N2CCC(C(C)N3CCOCC3)CC2)Cc2cc(OC)ccc2O1 (configuration not stated) |  | 0.814

Given as comma-separated lines: entries from further up.
SMILES,bacterial growth OD600 (polymyxin B 1 µg/mL),bacterial growth OD600 (polymyxin B 0.75 µg/mL)
O=C(c1ccc(NCCC2CCCC2)nc1)N1CCCN(c2ncccn2)CC1,,0.562
Cn1nccc1C(=O)N1CCCC(CCc2cccc(F)c2)C1 (configuration not stated),,0.587
Cc1ccc(CC2(CCC(=O)N(C)Cc3csc(-c4cccs4)n3)CCC(=O)N2)cc1 (configuration not stated),,0.889
Cc1nc(CN(C)C(=O)c2coc(COc3ccc(F)cc3Cl)n2)cs1,0.797,
CN(Cc1nccs1)Cc1cn(Cc2ccccc2)nc1-c1ccc2c(c1)OCO2,0.013,
O=C(NCc1ccon1)c1csc2nc(-c3ccc(C(F)(F)F)cc3)cn12,0.887,
COCc1ccc(C(=O)NCc2c(C)ncc3c2CCN(C(=O)Cc2c(F)ccc(F)c2F)C3)o1,,0.791
Cc1cc(F)ccc1NC(=O)CCC1CCCN(C(=O)CCCN2CCCC2=O)C1 (configuration not stated),1.09,
COc1ccc(NC(=O)CCC2CCCN(Cc3ccc(F)c(OC)c3)C2)c(C)c1 (configuration not stated),0.579,
